Source: article PMC10958042
Residue numbers refer to the chain shown, from its start. These are yes or no findings as the source states them, for the method shown. In cells and extracts the contact can be indirect. Some binding calls cover weakened binding; strength is not graded here. Where a sequence is shown, tags or fusion partners need not be part of it. One block for each binder: values may come before it.

Legend:
Assay in all cases: co-IP; LUMIER luminescence-based co-immunoprecipitation: Protein A-ATGL variant and firefly-luciferase partner co-expressed in HEK293T, SDS-free RIPA2 lysate precipitated in IgG-coated plates 2 h at 4 °C, luminescence read; log2 fold change against wild-type ATGL, two experiments in triplicate
[1] = biological target: T1, Protein A-ATGL N39E (human) (UniProt Q96AD5)
T1 sequence: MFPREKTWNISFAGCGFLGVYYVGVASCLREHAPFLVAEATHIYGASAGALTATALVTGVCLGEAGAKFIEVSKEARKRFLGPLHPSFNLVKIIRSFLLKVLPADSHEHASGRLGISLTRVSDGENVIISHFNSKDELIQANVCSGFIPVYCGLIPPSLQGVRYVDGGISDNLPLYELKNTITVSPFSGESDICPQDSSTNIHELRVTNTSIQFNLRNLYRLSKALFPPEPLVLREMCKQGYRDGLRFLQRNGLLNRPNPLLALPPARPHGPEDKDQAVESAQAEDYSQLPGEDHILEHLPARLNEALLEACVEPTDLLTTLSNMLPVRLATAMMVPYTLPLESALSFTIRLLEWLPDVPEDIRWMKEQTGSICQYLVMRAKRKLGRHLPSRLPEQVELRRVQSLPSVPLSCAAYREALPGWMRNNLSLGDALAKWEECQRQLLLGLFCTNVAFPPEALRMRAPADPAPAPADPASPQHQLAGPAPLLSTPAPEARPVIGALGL

[2] = biological target: T2, Protein A-ATGL L102K (human) (UniProt Q96AD5)
T2 sequence: T1 sequence with E39N, L102K

[3] = biological target: T3, Protein A-ATGL P103K (human) (UniProt Q96AD5)
T3 sequence: T1 sequence with E39N, P103K

[4] = biological target: T4, Protein A-ATGL L178A (human) (UniProt Q96AD5)
T4 sequence: T1 sequence with E39N, L178A

binding [1]: binds | binding [2]: binds
B1: murine Plin1 wild type, firefly-luciferase fusion (protein, UniProt Q8CGN5 1-517)
chain: MSMNKGPTLLDGDLPEQENVLQRVLQLPVVSGTCECFQKTYNSTKEAHPLVASVCNAYEKGVQGASNLAAWSMEPVVRRLSTQFTAANELACRGLDHLEEKIPALQYPPEKIASELKGTISTRLRSARNSISVPIASTSDKVLGATLAGCELALGMAKETAEYAANTRVGRLASGGADLALGSIEKVVEFLLPPDKESAPSSGRQRTQKAPKAKPSLVRRVSTLANTLSRHTMQTTAWALKQGHSLAMWIPGVAPLSSLAQWGASAAMQVVSRRQSEVRVPWLHNLAASQDESHDDQTDTEGEETDDEEEEEESEAEENVLREVTALPNPRGLLGGVVHTVQNTLRNTISAVTWAPAAVLGTVGRILHLTPAQAVSSTKGRAMSLSDALKGVTDNVVDTVVHYVPLPRLSLMEPESEFRDIDNPSAEAERKGSGARPASPESTPRPGQPRGSLRSVRGLSAPSCPGLDDKTEASARPGFLAMPREKPARRVSDSFFRPSVMEPILGRAQYSQLRKKS

binding [1]: binds | binding [3]: binds | binding [2]: binds | binding [4]: binds
B2: CIDEC wild type, firefly-luciferase fusion (protein, UniProt Q96AQ7 1-238)
chain: MEYAMKSLSLLYPKSLSRHVSVRTSVVTQQLLSEPSPKAPRARPCRVSTADRSVRKGIMAYSLEDLLLKVRDTLMLADKPFFLVLEEDGTTVETEEYFQALAGDTVFMVLQKGQKWQPPSEQGTRHPLSLSHKPAKKIDVARVTFDLYKLNPQDFIGCLNVKATFYDTYSLSYDLHCCGAKRIMKEAFRWALFSMQATGHVLLGTSCYLQQLLDATEEGQPPKGKASSLIPTCLKILQ

binding [1]: binds | binding [3]: binds | binding [2]: binds | binding [4]: binds
B3: CGI-58 wild type, firefly-luciferase fusion (protein, UniProt Q8WTS1 1-349)
chain: MAAEEEEVDSADTGERSGWLTGWLPTWCPTSISHLKEAEEKMLKCVPCTYKKEPVRISNGNKIWTLKFSHNISNKTPLVLLHGFGGGLGLWALNFGDLCTNRPVYAFDLLGFGRSSRPRFDSDAEEVENQFVESIEEWRCALGLDKMILLGHNLGGFLAAAYSLKYPSRVNHLILVEPWGFPERPDLADQDRPIPVWIRALGAALTPFNPLAGLRIAGPFGLSLVQRLRPDFKRKYSSMFEDDTVTEYIYHCNVQTPSGETAFKNMTIPYGWAKRPMLQRIGKMHPDIPVSVIFGARSCIDGNSGTSIQSLRPHSYVKTIAILGAGHYVYADQPEEFNQKVKEICDTVD

binding [3]: binds | binding [4]: binds
B4: G0S2 wild type, firefly-luciferase fusion (protein, UniProt P27469 1-103)
chain: METVQELIPLAKEMMAQKRKGKMVKLYVLGSVLALFGVVLGLMETVCSPFTAARRLRDQEAAVAELQAALERQALQKQALQEKGKQQDTVLGGRALSNRQHAS

binding [1]: binds | binding [3]: binds | binding [2]: binds | binding [4]: binds
B5: murine Plin5 wild type, firefly-luciferase fusion (protein, UniProt Q8BVZ1 1-463)
chain: MDQRGEDTTLAPHSRMSGDQTAQDPGSSLGELDQQNVVNRVVALPLVKATCTAVSSAYNSAKDRHPLLGSACRLAEHCVCSVTTCALDHAQPLLEHLQPQLATVNDLACRGLDKLEEKLPFLQQPSDMVVTSAKDTVAKSVTGMVDLAQRGRRWSGELRRSMSQAMDMVLGKSEKLVDRFLPMTEAELAVLAAEAEGPEVGTVEEQRQQQGYFVRLGSLSARLRHLAYEHSLGKLRQSKHRTQEMLAQLQETLELIQHMQRGASPSPTFHPPKTQELWGSWSPCLENGRSHSEVELETLALSRSLTLELQNAVDALAGCVRGLPPSAQAKVAEVQRSVDALQATFADAHCLGDVAPTALAEGRGSVARAHACVDEFLDLVLRAMPLPWLVGPFAPILVEQSEPLINLATCVDEVVGDPDPRWAHMDWPAQKRAWEAESADPGGQEAEPPRGQGKHTMMPELDF
